{"source": "paper PMC3902906", "key": {"[1]": {"target": "CsoRSl R54A (Streptomyces lividans 1326) (UniProt D6EK73)", "test": "EMSA", "conditions": "apo, no clear band shift; EMSA: same buffer, room temperature, 30 min, 6% PAGE in TBE; recombinant protein"}, "[2]": {"target": "CsoRSl R57A (Streptomyces lividans 1326) (UniProt D6EK73)", "test": "EMSA", "conditions": "apo, 10 uM protein, 1 uM DNA; EMSA: same buffer, room temperature, 30 min, 6% PAGE in TBE; recombinant protein"}, "[3]": {"target": "CsoRSl Q81A (Streptomyces lividans 1326) (UniProt D6EK73)", "test": "EMSA", "conditions": "apo, 10 uM protein, 1 uM DNA; EMSA: same buffer, room temperature, 30 min, 6% PAGE in TBE; recombinant protein"}, "[4]": {"target": "CsoR (CsoRSl) wild type (Streptomyces lividans 1326) (UniProt D6EK73)", "test": "CD", "conditions": "SEC: same buffer, recombinant protein"}, "[5]": {"target": "CsoRSl R54A (Streptomyces lividans 1326) (UniProt D6EK73)", "test": "size-exclusion chromatography", "conditions": "apo, no complex peak; SEC: same buffer; recombinant protein"}, "[6]": {"target": "CsoRSl R57A (Streptomyces lividans 1326) (UniProt D6EK73)", "test": "size-exclusion chromatography", "conditions": "apo, free DNA peak only; SEC: same buffer; recombinant protein"}, "[7]": {"target": "CsoRSl R132A (Streptomyces lividans 1326) (UniProt D6EK73)", "test": "size-exclusion chromatography", "conditions": "apo, 2:1 complex, lower complex/free ratio; SEC: same buffer; recombinant protein"}, "[8]": {"target": "CsoRSl R129A (Streptomyces lividans 1326) (UniProt D6EK73)", "test": "size-exclusion chromatography", "conditions": "apo, clear 2:1 complex; SEC: same buffer; recombinant protein"}, "[9]": {"target": "CsoRSl Q81A (Streptomyces lividans 1326) (UniProt D6EK73)", "test": "size-exclusion chromatography", "conditions": "apo, free DNA peak only; SEC: same buffer; recombinant protein"}, "[10]": {"target": "CsoRSl R57A (Streptomyces lividans 1326) (UniProt D6EK73)", "test": "ITC", "conditions": "apo; ITC: 10 mM HEPES, 150 mM NaCl, pH 7.5, 25 C, 100 uM DNA into 10 uM CsoR tetramer; recombinant protein"}, "[11]": {"target": "CsoRSl Q81A (Streptomyces lividans 1326) (UniProt D6EK73)", "test": "ITC", "conditions": "apo; ITC: 10 mM HEPES, 150 mM NaCl, pH 7.5, 25 C, 100 uM DNA into 10 uM CsoR tetramer; recombinant protein"}}, "note": "The exact form of at least one protein or probe is not confirmed. For part of these data: A negative result means that nothing was seen under these conditions. For part of these data: A weaker result is weaker than the reference pair of the same experiment."}
{"sequence": "CGGACAAATACCCCTGGTGGGTATATATGG (double strand) [csoR-EXT]", "values": [{"measurement": "binding result", "setting": "[1]", "value": "binds more weakly"}, {"measurement": "binding result", "setting": "[2]", "value": "no binding"}, {"measurement": "binding result", "setting": "[3]", "value": "no binding"}, {"measurement": "binding result", "setting": "[4]; Cu(I)-bound, no change at 263.5 nm", "value": "no binding"}, {"measurement": "binding result", "setting": "[4]; apo, 263.5 nm increase saturates at 2:1", "value": "binds"}, {"measurement": "binding result", "setting": "[5]", "value": "binds more weakly"}, {"measurement": "binding result", "setting": "[6]", "value": "no binding"}, {"measurement": "binding result", "setting": "[7]", "value": "binds more weakly"}, {"measurement": "binding result", "setting": "[8]", "value": "binds"}, {"measurement": "binding result", "setting": "[9]", "value": "no binding"}, {"measurement": "binding result", "setting": "[10]", "value": "no binding"}, {"measurement": "binding result", "setting": "[11]", "value": "no binding"}]}
